# Measurements from the supplement of paper PMC11732987, “Enantioselective OTUD7B fragment discovery through chemoproteomics screening and high-throughput optimisation” (Communications Chemistry, 2025).
# The chains behind the UniProt entries cited, without tags or fusion partners. Where a name states a change or a piece, a line headed by the entry shows the natural chain unless it says otherwise. Residues count along the entry.
# UniProt Q5THK1, 1411-1435: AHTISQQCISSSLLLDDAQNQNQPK
# UniProt O60671: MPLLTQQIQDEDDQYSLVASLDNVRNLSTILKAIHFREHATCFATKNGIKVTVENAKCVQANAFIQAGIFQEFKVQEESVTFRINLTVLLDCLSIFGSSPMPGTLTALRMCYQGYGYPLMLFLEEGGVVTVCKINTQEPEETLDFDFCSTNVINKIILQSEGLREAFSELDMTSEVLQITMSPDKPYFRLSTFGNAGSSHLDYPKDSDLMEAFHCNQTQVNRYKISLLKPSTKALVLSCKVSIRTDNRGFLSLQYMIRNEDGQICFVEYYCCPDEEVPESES
# UniProt Q9Y3P9: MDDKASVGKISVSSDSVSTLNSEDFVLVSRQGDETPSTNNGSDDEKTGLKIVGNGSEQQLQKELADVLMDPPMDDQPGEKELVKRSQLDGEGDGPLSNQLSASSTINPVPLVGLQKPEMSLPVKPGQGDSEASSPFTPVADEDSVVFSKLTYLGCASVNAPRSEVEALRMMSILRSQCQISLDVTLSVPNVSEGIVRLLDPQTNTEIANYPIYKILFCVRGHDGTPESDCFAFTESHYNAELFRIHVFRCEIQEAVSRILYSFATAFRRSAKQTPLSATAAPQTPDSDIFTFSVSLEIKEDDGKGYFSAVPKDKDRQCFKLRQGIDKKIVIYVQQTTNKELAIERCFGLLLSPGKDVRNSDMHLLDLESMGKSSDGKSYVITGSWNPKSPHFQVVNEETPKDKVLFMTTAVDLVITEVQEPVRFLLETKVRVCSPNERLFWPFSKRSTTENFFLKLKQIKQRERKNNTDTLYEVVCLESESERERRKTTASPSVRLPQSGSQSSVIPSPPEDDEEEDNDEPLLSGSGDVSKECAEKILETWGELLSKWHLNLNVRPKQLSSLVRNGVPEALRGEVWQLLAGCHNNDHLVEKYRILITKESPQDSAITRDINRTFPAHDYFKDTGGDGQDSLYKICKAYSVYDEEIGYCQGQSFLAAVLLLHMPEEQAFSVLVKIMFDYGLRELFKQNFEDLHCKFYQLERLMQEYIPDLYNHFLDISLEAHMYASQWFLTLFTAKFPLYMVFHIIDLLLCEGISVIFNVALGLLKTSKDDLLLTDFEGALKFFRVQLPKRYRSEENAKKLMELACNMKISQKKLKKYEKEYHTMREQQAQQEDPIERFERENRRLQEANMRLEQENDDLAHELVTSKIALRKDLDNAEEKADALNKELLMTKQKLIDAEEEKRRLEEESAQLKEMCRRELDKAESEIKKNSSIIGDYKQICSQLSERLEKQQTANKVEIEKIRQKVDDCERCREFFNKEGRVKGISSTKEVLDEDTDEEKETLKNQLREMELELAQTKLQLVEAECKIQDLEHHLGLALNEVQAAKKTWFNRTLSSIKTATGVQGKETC
# UniProt Q9NS91, 384-406: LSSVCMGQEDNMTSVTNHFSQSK
# UniProt O75943: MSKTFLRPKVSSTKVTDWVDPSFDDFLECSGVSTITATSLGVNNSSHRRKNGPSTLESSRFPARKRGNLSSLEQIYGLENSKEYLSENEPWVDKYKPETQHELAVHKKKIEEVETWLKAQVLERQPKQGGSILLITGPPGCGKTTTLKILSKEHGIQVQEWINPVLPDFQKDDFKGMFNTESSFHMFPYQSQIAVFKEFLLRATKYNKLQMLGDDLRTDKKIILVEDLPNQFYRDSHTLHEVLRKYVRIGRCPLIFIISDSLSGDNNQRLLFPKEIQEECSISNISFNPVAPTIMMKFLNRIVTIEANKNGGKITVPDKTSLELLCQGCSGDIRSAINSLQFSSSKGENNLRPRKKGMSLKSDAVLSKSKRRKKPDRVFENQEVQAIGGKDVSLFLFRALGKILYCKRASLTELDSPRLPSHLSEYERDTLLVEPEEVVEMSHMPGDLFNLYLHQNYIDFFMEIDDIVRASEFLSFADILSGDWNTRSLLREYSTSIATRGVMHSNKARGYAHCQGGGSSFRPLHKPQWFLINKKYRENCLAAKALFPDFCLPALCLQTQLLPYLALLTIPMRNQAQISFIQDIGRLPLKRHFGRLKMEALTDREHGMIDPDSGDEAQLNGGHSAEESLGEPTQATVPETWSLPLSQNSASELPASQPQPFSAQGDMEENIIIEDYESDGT
# UniProt P25786: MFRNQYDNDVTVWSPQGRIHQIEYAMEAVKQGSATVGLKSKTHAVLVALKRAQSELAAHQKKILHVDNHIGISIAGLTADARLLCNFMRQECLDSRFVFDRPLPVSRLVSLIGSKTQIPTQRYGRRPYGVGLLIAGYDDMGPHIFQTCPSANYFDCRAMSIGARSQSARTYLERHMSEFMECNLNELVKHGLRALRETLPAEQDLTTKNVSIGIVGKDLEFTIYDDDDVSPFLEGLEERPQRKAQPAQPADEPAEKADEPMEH
# UniProt P28066, 67-86: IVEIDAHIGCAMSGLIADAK
# UniProt P60900: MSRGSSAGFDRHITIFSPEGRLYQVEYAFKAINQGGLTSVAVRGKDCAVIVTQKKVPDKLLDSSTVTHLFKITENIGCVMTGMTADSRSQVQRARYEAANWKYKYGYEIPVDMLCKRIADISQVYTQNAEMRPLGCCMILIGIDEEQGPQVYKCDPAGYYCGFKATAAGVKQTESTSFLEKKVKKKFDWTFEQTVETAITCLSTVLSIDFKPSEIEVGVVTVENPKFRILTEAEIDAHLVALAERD
# UniProt Q15032: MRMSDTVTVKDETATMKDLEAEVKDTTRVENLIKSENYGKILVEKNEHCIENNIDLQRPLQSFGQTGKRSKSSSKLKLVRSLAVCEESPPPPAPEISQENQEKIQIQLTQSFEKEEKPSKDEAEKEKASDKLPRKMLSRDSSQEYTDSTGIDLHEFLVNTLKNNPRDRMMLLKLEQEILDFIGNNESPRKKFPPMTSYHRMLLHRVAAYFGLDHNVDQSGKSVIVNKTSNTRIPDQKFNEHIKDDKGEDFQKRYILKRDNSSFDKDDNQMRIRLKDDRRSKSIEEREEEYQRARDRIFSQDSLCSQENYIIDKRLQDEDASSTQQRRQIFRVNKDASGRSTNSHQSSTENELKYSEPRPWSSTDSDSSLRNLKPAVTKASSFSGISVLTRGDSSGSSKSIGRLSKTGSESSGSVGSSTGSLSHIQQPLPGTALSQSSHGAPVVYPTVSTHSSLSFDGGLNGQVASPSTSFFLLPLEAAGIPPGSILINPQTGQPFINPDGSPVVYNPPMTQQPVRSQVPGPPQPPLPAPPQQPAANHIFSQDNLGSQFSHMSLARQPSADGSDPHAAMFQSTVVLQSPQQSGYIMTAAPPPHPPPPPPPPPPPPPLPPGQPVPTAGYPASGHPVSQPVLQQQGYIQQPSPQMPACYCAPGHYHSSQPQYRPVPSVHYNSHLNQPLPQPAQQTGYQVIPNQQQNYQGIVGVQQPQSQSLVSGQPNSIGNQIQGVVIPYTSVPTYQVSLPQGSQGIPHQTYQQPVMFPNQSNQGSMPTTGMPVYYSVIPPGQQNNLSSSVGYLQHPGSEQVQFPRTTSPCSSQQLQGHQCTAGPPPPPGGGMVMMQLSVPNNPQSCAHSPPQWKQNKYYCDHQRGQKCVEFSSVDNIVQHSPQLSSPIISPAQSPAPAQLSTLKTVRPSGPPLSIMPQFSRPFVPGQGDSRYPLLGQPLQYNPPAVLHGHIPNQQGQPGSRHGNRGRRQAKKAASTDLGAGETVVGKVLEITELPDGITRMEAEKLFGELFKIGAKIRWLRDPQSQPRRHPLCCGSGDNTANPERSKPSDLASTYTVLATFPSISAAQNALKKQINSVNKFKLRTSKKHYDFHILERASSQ
# UniProt Q13200, 457-478: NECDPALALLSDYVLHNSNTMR
# UniProt Q9Y3T6: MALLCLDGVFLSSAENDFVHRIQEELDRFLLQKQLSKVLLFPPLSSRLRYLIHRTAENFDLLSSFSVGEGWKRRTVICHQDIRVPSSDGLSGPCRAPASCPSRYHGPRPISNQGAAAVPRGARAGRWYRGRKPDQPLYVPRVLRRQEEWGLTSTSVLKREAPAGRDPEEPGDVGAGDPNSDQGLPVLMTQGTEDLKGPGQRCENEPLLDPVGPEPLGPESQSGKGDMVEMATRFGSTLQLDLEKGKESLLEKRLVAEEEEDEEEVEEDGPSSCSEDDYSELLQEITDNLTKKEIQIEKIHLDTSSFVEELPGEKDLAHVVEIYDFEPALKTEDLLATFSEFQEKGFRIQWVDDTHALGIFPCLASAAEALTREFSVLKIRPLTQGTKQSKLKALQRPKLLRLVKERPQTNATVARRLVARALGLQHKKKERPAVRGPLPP
# UniProt O95716: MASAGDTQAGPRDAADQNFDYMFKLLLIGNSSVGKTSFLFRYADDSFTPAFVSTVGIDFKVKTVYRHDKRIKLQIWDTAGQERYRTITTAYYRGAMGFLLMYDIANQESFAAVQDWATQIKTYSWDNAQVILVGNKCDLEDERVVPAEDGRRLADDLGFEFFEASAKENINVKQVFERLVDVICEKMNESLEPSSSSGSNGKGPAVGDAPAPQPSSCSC
# UniProt Q7Z7A4: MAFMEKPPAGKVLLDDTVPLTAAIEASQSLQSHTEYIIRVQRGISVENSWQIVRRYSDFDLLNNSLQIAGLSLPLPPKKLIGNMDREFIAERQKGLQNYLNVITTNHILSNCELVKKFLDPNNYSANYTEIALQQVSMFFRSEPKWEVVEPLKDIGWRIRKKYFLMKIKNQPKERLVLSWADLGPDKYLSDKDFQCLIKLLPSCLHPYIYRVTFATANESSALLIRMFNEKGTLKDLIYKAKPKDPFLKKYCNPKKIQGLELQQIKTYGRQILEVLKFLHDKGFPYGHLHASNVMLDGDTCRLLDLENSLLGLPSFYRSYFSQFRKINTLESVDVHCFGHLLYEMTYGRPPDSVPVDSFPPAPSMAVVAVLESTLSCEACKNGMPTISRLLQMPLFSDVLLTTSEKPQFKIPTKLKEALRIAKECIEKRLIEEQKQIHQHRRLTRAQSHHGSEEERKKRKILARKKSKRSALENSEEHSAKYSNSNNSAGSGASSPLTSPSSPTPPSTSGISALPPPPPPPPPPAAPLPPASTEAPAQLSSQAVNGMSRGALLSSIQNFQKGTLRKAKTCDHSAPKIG
# UniProt Q9Y620: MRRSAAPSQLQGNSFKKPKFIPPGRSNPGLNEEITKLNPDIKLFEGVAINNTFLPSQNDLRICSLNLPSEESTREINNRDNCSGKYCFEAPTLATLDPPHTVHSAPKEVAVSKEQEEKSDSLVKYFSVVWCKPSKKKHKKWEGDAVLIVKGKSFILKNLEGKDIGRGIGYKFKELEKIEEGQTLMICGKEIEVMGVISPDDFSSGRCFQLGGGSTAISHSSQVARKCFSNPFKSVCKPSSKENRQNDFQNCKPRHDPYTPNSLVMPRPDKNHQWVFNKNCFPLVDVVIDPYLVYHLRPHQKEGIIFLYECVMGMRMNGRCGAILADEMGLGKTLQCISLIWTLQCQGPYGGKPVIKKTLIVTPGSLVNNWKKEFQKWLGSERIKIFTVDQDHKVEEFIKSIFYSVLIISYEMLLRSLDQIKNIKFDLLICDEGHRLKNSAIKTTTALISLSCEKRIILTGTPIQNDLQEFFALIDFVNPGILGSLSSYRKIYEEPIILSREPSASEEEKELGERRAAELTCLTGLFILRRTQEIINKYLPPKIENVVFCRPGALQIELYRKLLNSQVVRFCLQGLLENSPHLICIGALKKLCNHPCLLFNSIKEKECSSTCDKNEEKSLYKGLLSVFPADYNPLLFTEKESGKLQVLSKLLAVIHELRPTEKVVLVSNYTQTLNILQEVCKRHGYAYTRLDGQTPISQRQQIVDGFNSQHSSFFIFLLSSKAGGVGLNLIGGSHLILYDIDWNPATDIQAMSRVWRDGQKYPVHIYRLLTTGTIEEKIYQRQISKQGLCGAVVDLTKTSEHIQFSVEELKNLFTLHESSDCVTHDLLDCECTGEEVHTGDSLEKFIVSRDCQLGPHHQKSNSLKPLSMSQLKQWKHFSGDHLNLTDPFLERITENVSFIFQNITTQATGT
# UniProt O60216: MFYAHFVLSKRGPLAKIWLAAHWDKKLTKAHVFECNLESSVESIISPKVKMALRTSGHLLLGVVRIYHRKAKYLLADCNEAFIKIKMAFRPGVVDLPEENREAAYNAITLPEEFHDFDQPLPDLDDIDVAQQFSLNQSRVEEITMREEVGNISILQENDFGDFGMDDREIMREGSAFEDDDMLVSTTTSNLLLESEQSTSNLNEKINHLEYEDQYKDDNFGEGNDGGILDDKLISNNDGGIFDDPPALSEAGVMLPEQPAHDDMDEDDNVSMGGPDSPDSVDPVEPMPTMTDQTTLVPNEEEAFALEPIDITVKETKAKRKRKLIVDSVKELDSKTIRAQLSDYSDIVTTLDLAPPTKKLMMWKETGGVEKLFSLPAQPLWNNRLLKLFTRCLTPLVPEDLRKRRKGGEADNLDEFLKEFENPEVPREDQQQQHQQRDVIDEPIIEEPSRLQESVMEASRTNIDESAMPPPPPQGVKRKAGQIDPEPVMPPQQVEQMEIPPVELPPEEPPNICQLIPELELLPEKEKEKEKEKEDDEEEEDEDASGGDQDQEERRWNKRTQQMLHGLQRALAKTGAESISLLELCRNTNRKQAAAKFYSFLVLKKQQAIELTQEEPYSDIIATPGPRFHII
# The list shows a part of the results. The data scatter; read single values as rough.
# Compound: ClCC(=O)N[C@H]1CCCc2ccccc12
# Experiment: log2 mean competition ratio of IA-DTB cysteine labelling (DMSO/compound) (log2 ratio); higher = stronger cysteine engagement by compound
# Details: 50 µM; treatment time: 4 h; cell line lysate: HEK293T
# Experimental: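 IA-DTB competitive cysteine chemoproteomics in HEK293T RIPA lysate. Lysates were treated with compound 29 or 30 at 50 or 200 µM for 4 h, then IA-DTB (500 µM, 1 h), trypsin-digested, NeutrAvidin-enriched and analysed by diaPASEF. Competition ratio = intensity DMSO / intensity compound (n=4 treated, n=64 DMSO); binding: mean log2 CR ≥ 1 and p ≤ 0.05 plus QC filters. Target is the cysteine site.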
row,Target,log2 mean competition ratio
1,PRR14L C1418 (UniProt Q5THK1),0.0234
2,RAD1 C239 (UniProt O60671),0.241
3,RABGAP1 C969 (UniProt Q9Y3P9),0.101
4,RAD18 C388 (UniProt Q9NS91),-0.413
5,PWWP3A C228,-0.0691
6,"QARS1 C298, A0A0U1RR66",0.112
7,RAD17 C141 (UniProt O75943),-0.0424
8,RABGAP1 C155 (UniProt Q9Y3P9),0.235
9,"PSME1_(C101,C101,C106,C106) (UniProt Q06323)",-0.204
10,RAC1 C6 (UniProt P63000),-0.207
11,RAB12 C159,-0.361
12,PSMA1 C92 (UniProt P25786),0.132
13,PSMA5 C76 (UniProt P28066),0.0827
14,PTPDC1 C380 (UniProt A2A3K4),-0.0577
15,PSMA6 C78 (UniProt P60900),0.508
16,PTGIS C231,-0.257
17,RAB11FIP2 C384,-0.366
18,R3HDM1 C304 (UniProt Q15032+R3HDM1),0.436
19,PRRC2B C726,0.156

row,Target,log2 mean competition ratio
1,PSMD2 C459 (UniProt Q13200),0.18
2,PSMD2 C779 (UniProt Q13200),-0.325
3,R3HCC1 C78 (UniProt Q9Y3T6+R3HCC1),0.00131
4,PTPN23 C65 (UniProt Q9H3S7),0.162
5,RAB3D C184 (UniProt O95716),0.0167
6,PRRC2B C1212,0.254
7,RAB21 C40 (UniProt Q9UL25),0.061
8,"QARS1 C556, A0A0U1RR66",0.0761
9,PSMD1 C898,0.249
10,PXK C196 (UniProt Q7Z7A4),-0.256
11,RAD50 C102,0.188
12,PTRH2 C111 (UniProt Q9Y3E5),0.32
13,RAD54B C851 (UniProt Q9Y620),-0.184
14,PXN C546 (UniProt P49023),0.03
15,PRRC2B C819,0.0405
16,RAD21 C78 (UniProt O60216),0.0239
17,RAB4A C28 (UniProt P20338),-0.53
18,RAD50 C221,-0.723

# Same assay, conditions: 200 µM; treatment time: 4 h; cell line lysate: HEK293T
row,Target,log2 mean competition ratio
1,PRR14L C1418 (UniProt Q5THK1),-0.0588
2,RAD1 C239 (UniProt O60671),-0.12
3,RABGAP1 C969 (UniProt Q9Y3P9),0.0411
4,RAD18 C388 (UniProt Q9NS91),0.106
5,PWWP3A C228,-0.509
6,"QARS1 C298, A0A0U1RR66",-0.281
7,RAD17 C141 (UniProt O75943),0.288
8,RABGAP1 C155 (UniProt Q9Y3P9),0.0143
9,"PSME1_(C101,C101,C106,C106) (UniProt Q06323)",-0.37
10,RAC1 C6 (UniProt P63000),-0.0843
11,RAB12 C159,-0.0102
12,PSMA1 C92 (UniProt P25786),0.414
13,PSMA5 C76 (UniProt P28066),0.186
14,PTPDC1 C380 (UniProt A2A3K4),0.158
15,PSMA6 C78 (UniProt P60900),-0.174
16,PTGIS C231,-0.359
17,RAB11FIP2 C384,-0.0288
18,R3HDM1 C304 (UniProt Q15032+R3HDM1),-0.0236
19,PRRC2B C726,0.215

row,Target,log2 mean competition ratio
1,PSMD2 C459 (UniProt Q13200),-0.124
2,PSMD2 C779 (UniProt Q13200),-0.0942
3,R3HCC1 C78 (UniProt Q9Y3T6+R3HCC1),0.144
4,PTPN23 C65 (UniProt Q9H3S7),0.425
5,RAB3D C184 (UniProt O95716),-0.0134
6,PRRC2B C1212,0.289
7,RAB21 C40 (UniProt Q9UL25),0.0214
8,"QARS1 C556, A0A0U1RR66",-0.364
9,PSMD1 C898,0.136
10,PXK C196 (UniProt Q7Z7A4),-0.15
11,RAD50 C102,0.0243
12,PTRH2 C111 (UniProt Q9Y3E5),0.0156
13,RAD54B C851 (UniProt Q9Y620),-0.00121
14,PXN C546 (UniProt P49023),0.0452
15,PRRC2B C819,0.238
16,RAD21 C78 (UniProt O60216),0.172
17,RAB4A C28 (UniProt P20338),0.492
18,RAD50 C221,-0.296
